Among the data in PMC10957977 are binding values, retold here.

The chains behind the UniProt entries cited, without tags or fusion partners. Where a name states a change or a piece, a line headed by the entry shows the natural chain unless it says otherwise. A line that says so, or that is headed by a name, gives the form on record, which may keep a tag or linker.
UniProt O15372: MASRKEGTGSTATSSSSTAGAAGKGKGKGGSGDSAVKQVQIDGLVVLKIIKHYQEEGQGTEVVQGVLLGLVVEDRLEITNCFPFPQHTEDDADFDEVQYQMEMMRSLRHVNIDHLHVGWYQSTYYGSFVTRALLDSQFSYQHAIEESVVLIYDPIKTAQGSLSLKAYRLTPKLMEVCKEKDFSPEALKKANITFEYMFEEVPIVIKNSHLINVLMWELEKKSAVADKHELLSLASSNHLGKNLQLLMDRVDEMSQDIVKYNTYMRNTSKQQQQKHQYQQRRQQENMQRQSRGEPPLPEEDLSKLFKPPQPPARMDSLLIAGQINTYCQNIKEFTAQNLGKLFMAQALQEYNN
EIF3H^DDQ/AAA (O15372, form named): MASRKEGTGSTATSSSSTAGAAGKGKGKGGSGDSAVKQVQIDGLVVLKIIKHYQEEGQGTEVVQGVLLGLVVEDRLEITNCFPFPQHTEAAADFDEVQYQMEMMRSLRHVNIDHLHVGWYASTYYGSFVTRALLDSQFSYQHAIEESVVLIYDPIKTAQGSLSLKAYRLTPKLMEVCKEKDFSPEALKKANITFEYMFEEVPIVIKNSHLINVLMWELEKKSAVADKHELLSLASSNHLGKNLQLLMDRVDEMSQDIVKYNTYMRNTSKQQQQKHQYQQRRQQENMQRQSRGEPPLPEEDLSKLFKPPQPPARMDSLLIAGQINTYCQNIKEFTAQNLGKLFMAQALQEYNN
EIF3H^YW/AA (O15372, form named): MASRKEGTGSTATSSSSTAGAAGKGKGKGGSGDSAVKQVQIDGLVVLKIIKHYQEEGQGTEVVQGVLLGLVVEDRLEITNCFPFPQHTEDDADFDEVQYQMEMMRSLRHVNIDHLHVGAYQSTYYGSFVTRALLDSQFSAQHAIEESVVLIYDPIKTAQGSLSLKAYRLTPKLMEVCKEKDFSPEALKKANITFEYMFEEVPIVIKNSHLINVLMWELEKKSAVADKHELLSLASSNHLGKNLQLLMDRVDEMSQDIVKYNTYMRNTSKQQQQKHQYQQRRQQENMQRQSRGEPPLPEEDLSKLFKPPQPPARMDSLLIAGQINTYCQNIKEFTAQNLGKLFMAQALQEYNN
UniProt Q9Y297: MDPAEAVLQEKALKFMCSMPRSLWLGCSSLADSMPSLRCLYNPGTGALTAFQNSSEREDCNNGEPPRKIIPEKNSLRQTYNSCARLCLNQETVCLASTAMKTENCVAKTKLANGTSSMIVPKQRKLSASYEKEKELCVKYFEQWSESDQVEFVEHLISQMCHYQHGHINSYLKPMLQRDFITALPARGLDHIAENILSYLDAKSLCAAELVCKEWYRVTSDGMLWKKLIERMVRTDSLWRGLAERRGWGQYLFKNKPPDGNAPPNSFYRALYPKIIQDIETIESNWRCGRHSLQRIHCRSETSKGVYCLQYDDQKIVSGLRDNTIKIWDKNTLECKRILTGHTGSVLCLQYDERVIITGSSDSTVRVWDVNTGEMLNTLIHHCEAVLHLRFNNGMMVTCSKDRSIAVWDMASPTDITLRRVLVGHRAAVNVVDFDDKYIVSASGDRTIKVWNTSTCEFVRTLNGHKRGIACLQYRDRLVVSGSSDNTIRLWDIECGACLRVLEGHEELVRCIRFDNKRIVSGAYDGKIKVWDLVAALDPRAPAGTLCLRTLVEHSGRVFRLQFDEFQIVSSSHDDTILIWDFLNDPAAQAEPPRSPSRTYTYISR
UniProt P27361: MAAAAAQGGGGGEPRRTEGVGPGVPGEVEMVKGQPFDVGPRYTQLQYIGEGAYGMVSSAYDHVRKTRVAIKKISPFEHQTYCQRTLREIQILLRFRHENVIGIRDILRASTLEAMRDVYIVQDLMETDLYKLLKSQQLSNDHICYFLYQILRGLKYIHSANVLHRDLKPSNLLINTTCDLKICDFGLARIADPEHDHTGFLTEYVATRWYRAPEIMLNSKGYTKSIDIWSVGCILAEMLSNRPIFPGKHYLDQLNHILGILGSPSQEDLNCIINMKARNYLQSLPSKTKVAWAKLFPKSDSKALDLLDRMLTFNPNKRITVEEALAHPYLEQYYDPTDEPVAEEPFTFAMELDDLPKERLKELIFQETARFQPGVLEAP

In one test the target is Flag-HAX1 in HEK293T (UniProt O00165). Put plainly: co-IP; HEK293T cells transfected with Flag- or Myc-tagged bait (in some panels with increasing HA-HAX1); NP-40 buffer (50 mM Tris-HCl pH 7.5, 150 mM NaCl, 1 mM EDTA, 0.1% NP-40, 0.1% Triton); anti-Flag M2 beads or anti-Myc magnetic beads, 4 °C, 3-4 h; immunoblot.
The target of the next test is Flag-RAF1 in HCT116 (UniProt P04049). Put plainly: co-IP; HCT116 cells (shCtrl, shHAX1 or shEIF3H, with or without HA-HAX1) transfected with Flag-RAF1 and/or Myc-RAF1; anti-Flag M2 or anti-Myc beads; immunoblot.
Another test addresses Flag-RAF1 in HEK293T (UniProt P04049). Nature of the test: co-IP; HEK293T cells transfected with Flag- or Myc-tagged bait (in some panels with increasing HA-HAX1); NP-40 buffer (50 mM Tris-HCl pH 7.5, 150 mM NaCl, 1 mM EDTA, 0.1% NP-40, 0.1% Triton); anti-Flag M2 beads or anti-Myc magnetic beads, 4 °C, 3-4 h; immunoblot.
For test [1], the target named is EIF3H, endogenous in HCT116 (human (endogenous in HCT116)) (UniProt O15372). Put plainly: proximity ligation; in situ PLA (Duolink) on fixed HCT116 cells with rabbit anti-HAX1 and mouse anti-EIF3H antibodies.
For test [2] the target is unchanged. Put plainly: co-IP; endogenous proteins, HCT116 lysate; primary antibody overnight at 4 °C and Protein A/G Sepharose; rabbit IgG as control; immunoblot.
For test [3] the target is unchanged. Put plainly: SEC; HCT116 (shCtrl and shEIF3H) cell extract, about 5 mg protein, on Superose 6 Increase 10/300 GL in cold PBS; fractions analysed by western blot.
The target of another test is EIF3H^DDQ/AAA (UniProt O15372). Nature of the test: co-IP; wild-type and point-mutant EIF3H with HAX1 (Supplementary Fig. 5b); cells, bait and beads not told.
The next test concerns the target EIF3H^YW/AA (UniProt O15372). Described as above.
Test [4] addresses myc-EIF3H (1-352, full length), wild type (UniProt O15372). The test is described as above.
Test [5] has as its target Flag-EIF3H (1-352, full length) in HEK293T (UniProt O15372). Nature of the test: co-IP; HEK293T cells transfected with Flag- or Myc-tagged bait (in some panels with increasing HA-HAX1); NP-40 buffer (50 mM Tris-HCl pH 7.5, 150 mM NaCl, 1 mM EDTA, 0.1% NP-40, 0.1% Triton); anti-Flag M2 beads or anti-Myc magnetic beads, 4 °C, 3-4 h; immunoblot.
In test [6] the target is Flag-RAF1-GFP, full length (UniProt P04049). Described as above.
For another test, the target named is Flag-βTrCP in HEK293T (UniProt Q9Y297). The description is as above.
Test [7] has as its target HAX1 (HS1 associated protein X-1), endogenous in HCT116 (human (endogenous in HCT116)) (UniProt O00165). Nature of the test: co-IP; endogenous proteins, HCT116 lysate; primary antibody overnight at 4 °C and Protein A/G Sepharose; rabbit IgG as control; immunoblot.
Test [8] deals with Flag-HAX1 S232A/T236A mutant (2AA) (UniProt O00165). Nature of the test: co-IP; HEK293T cells transfected with Flag- or Myc-tagged bait (in some panels with increasing HA-HAX1); NP-40 buffer (50 mM Tris-HCl pH 7.5, 150 mM NaCl, 1 mM EDTA, 0.1% NP-40, 0.1% Triton); anti-Flag M2 beads or anti-Myc magnetic beads, 4 °C, 3-4 h; immunoblot.
Test [9] has as its target Flag-HAX1 S232D/T236D mutant (2DD) (UniProt O00165). The description is as above.

These are yes or no findings as the source states them, for the method shown. For part of these data: In cells and extracts the contact can be indirect. Some entries that bind do so weakly or less than the wild type.

Take “EIF3H, endogenous in HEK293T (from UniProt O15372 1-352)”: the binding entry with Flag-HAX1 in HEK293T is “binds”. For “ERK1, endogenous in HCT116 (from UniProt P27361 1-379)”, the binding result with Flag-RAF1 in HCT116 is “binds”.

Take “ERK1, endogenous in HEK293T (from UniProt P27361 1-379)”: the binding entry in the test with Flag-RAF1 in HEK293T is reported as “binds”.

With “ERK2, endogenous in HCT116 (from UniProt P28482 1-360)”, the binding entry with Flag-RAF1 in HCT116 is reported as “binds”. Regarding “ERK2, endogenous in HEK293T (from UniProt P28482 1-360)”, in the test with Flag-RAF1 in HEK293T, the binding entry is “binds”. In the case of “HAX1 (HS1 associated protein X-1), endogenous in HCT116 (from UniProt O00165 1-279)”, the binding entry in test [1], in test [2] and in test [3] was “binds” throughout. As to “HAX1 (co-IP of Supplementary Fig. 5b) (from UniProt O00165 1-279)”, the binding result (with EIF3H^DDQ/AAA; with EIF3H^YW/AA; in [4]) was “binds” each time. “HAX1, endogenous in HEK293T (from UniProt O00165 1-279)”: the binding result (in [5]; in the test with Flag-RAF1 in HEK293T; in [6]; with Flag-βTrCP in HEK293T) was “binds” in each case.

Regarding “RAF1, endogenous in HCT116 (from UniProt P04049 1-648)”, in test [7], the binding entry was “binds”. With “RAF1, endogenous in HEK293T (from UniProt P04049 1-648)”, the binding result with Flag-HAX1 in HEK293T was “binds”.

As for “βTrCP, endogenous in HCT116 (from UniProt Q9Y297 1-605)”, in test [7], the binding result was “binds”. As for “βTrCP, endogenous in HEK293T (from UniProt Q9Y297 1-605)”, the binding result in test [8] is “no binding”; in test [9], “binds”; in the test with Flag-HAX1 in HEK293T, “binds”.
